Data reported in PMC11490702.
Positions count from the first letter of the chain named. Results are given in words; binding and its absence hold for the method and conditions named. In cells and extracts the contact can be indirect. Some results given as binding are weak or reduced against the parent protein; the word gives no strength. Tags and fused reporters may be left off the sequences shown.

Amino acid sequences for entries named in this document (tags omitted).
UniProt P31946: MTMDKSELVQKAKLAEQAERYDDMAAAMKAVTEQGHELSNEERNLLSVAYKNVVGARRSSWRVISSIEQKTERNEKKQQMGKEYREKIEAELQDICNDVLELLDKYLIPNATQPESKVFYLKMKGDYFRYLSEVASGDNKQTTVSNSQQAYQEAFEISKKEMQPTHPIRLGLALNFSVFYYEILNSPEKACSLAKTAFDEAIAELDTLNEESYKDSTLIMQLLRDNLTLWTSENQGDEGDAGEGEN
UniProt P63104: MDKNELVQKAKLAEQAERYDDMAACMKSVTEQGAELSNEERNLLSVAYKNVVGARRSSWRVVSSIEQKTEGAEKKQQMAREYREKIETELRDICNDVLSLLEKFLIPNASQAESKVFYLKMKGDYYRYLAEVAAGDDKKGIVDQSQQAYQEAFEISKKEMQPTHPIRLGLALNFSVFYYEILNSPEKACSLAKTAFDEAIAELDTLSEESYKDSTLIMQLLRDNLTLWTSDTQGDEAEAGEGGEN

Tests used:
[1] = target: T1, Flag-OGT-S20A (UniProt O15294); assay: co-IP; cells co-transfected with Flag-OGT (WT or S20A) and HA-14-3-3 isoforms; immunoprecipitated with anti-Flag
T1 sequence: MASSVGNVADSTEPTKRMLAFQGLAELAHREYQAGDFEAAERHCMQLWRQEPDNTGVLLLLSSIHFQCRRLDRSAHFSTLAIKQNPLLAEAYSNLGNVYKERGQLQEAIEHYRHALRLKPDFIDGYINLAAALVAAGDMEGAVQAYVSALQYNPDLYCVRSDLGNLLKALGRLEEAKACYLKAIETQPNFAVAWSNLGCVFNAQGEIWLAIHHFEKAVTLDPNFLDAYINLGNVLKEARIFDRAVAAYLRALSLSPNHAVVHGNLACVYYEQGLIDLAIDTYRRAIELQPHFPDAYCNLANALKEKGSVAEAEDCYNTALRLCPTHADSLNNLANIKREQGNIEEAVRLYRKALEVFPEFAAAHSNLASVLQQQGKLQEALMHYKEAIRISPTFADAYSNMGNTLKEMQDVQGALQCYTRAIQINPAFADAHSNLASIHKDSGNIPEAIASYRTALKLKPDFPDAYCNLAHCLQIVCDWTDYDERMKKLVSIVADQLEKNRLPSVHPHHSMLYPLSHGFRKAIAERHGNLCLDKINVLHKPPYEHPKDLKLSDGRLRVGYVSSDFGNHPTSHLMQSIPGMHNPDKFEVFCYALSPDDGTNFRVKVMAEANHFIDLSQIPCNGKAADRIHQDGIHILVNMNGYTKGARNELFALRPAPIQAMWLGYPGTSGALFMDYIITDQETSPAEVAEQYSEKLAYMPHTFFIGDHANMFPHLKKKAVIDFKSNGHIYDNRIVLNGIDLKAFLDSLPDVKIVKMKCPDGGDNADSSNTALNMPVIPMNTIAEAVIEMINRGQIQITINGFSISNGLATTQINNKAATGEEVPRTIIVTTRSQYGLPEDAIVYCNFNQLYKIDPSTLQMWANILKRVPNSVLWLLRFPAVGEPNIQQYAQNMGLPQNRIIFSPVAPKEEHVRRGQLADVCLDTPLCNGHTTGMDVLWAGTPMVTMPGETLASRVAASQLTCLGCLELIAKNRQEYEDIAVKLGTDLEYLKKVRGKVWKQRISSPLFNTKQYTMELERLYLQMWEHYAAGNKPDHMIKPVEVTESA

[2] = target: T2, Flag-OGT-WT (UniProt O15294); assay: as above
T2 sequence: T1 sequence with A20S

| binding [1] | binding [2] | Substance |
| --- | --- | --- |
| binds | binds | HA-14-3-3-β (from UniProt P31946 1-246) |
| binds | binds | HA-14-3-3-ζ (from UniProt P63104 1-245) |
